Data as given in PMC10117718.
These are yes or no findings as the source states them, for the method shown. Binding seen in cells or lysates may run through a third protein. These calls come from enrichment with a bait or labelling near it, and not all partners need be listed.

Target: KhpB (E. faecalis V583) (E. faecalis V583 (endogenous in E. faecalis lysate))
Experiment: affinity purification with mass spectrometry; native KhpB immunoprecipitated from E. faecalis lysate (OD 2) with polyclonal anti-KhpB serum on protein A sepharose beads, 4°C, 2 h; lysis buffer 20 mM Tris/HCl pH 8.0, 150 mM KCl, 1 mM MgCl2, 1 mM DTT; preimmune sera as control; organic layer precipitated with methanol and analysed by LC-MS/MS

B1: tryptophan–tRNA ligase (E. faecalis V583) (enzyme, UniProt Q830U2 1-336)
chain: MKTIFSGIQPSGTPTIGNYIGAMKQFIELQNEYNCYFCIVDEHAITVPQEPQKLRQQIRSLAALYLAVGLDPQKATIFIQSEVSAHAEAGWIIQCNTSIGELERMTQFKDKSQKNGRAGVSAGLLTYPPLMVGDIVLYNADLVPVGDDQKQHLELTRDFVERFNKRYAQKNQEILTIPEVKIAEQGSRIMSLQEPTKKMSKSDTNVKGFISMLDEPAVIRKKIRSAVTDSTGVIEYNKEEKPGITNLLNIYSAATGQTVEELVQAYEGKGYGDFKADLAEAVVALLEPIQVRYQELLASEELDMILDEGAENARLVANKTLQRMKNAVGLGRKVRR
  binding: binds
